According to patent US8946190B2, “Medium-chain length fatty acids, salts and triglycerides in combination with gemcitabine for treatment of pancreatic cancer” (priority 2007, dated 2015):
Some results were stated once for a whole list of compounds, not compound by compound.

System: syngeneic Panc02 pancreas tumor
Experiment: Panc02 mouse pancreatic cancer model, intradermal syngeneic tumor growth
Type: in vivo, C57BL/6 mice
Conditions: FIG. 2; sodium decanoate oral 400 mg/kg; day 23 and 25

**Q.** Which T/C does the source give for CCCCCCCCCC(=O)[O-].[Na+] [Sodium decanoate] here?
**A.** Its T/C is under 40%.
